In the supplement of paper PMC12823440, “Inhibitors supercharge kinase turnover through native proteolytic circuits” (Nature, 2025):
Where a name gives a salt, the structure may show the parent alone. The list shows a part of the results. Hit calls seldom repeat between salt and free forms of one compound.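 Kinases were expressed as nanoluciferase fusions in K562 cells and luminescence was read every 4 h between 2 and 18 h as percent of control, DMSO set to 100% and a positive control to 0%. A time point counts as decreased when the signal drops significantly (2 sigma). The hit call is the authors' own, does not follow from the count of time points alone, and its rule is not shown.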

By UniProt entry, the sequences of proteins in these tests, tags left out. Where a name states a change or a piece, a line headed by the entry shows the natural chain unless it says otherwise.
UniProt Q9Y616: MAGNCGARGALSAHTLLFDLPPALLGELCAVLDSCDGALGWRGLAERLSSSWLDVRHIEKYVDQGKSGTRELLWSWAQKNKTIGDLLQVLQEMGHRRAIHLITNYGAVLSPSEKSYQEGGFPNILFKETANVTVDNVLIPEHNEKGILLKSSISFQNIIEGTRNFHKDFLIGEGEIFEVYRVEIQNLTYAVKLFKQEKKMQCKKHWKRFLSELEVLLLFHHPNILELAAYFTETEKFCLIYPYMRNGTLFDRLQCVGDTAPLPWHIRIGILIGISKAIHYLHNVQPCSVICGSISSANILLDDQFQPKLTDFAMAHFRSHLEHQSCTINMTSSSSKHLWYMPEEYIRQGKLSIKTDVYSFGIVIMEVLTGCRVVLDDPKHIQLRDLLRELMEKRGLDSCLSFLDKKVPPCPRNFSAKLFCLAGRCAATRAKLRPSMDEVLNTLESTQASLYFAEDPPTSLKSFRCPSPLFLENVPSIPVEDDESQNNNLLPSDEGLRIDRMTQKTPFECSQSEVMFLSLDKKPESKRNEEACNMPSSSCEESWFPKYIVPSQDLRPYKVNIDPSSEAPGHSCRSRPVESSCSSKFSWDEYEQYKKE
UniProt P23458: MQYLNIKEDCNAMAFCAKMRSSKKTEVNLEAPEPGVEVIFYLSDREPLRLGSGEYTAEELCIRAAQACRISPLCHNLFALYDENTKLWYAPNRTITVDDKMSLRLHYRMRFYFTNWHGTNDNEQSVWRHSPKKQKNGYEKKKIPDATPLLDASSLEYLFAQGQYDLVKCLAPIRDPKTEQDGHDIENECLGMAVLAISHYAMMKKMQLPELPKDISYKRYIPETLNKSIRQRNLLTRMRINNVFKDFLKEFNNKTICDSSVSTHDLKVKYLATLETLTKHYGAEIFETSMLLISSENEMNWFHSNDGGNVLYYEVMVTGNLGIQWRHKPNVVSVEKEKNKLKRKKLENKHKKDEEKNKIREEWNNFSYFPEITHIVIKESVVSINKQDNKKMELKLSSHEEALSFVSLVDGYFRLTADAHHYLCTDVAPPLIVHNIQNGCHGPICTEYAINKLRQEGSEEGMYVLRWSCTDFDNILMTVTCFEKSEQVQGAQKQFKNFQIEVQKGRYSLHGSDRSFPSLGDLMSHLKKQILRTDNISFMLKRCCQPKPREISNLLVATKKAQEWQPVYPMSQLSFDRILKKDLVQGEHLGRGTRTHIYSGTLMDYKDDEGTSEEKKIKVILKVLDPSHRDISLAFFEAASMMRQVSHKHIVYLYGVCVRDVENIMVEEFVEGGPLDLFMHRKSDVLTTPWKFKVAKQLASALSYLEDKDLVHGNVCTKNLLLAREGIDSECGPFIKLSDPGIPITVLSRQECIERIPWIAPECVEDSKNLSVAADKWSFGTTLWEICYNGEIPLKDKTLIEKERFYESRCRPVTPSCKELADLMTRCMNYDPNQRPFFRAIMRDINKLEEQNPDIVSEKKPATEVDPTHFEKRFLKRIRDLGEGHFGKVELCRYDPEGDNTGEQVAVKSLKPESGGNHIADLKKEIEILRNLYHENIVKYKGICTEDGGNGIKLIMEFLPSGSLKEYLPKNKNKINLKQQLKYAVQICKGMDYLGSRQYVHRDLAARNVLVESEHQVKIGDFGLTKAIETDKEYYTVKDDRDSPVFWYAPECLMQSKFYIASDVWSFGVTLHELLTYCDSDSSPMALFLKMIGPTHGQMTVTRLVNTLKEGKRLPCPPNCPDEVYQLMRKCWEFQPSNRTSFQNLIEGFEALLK
UniProt P06239: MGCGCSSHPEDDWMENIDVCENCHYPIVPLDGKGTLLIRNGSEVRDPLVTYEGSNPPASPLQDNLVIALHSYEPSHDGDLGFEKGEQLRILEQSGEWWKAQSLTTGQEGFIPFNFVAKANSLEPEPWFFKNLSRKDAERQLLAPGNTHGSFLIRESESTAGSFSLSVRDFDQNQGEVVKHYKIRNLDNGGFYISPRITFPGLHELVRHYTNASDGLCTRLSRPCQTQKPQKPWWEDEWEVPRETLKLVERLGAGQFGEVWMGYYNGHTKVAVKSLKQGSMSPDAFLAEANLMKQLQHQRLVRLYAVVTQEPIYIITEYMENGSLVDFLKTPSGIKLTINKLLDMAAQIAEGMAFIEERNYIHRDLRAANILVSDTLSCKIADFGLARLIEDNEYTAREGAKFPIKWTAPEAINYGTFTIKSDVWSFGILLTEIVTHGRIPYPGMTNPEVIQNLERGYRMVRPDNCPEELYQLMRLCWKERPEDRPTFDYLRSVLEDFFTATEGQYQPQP
UniProt P53667: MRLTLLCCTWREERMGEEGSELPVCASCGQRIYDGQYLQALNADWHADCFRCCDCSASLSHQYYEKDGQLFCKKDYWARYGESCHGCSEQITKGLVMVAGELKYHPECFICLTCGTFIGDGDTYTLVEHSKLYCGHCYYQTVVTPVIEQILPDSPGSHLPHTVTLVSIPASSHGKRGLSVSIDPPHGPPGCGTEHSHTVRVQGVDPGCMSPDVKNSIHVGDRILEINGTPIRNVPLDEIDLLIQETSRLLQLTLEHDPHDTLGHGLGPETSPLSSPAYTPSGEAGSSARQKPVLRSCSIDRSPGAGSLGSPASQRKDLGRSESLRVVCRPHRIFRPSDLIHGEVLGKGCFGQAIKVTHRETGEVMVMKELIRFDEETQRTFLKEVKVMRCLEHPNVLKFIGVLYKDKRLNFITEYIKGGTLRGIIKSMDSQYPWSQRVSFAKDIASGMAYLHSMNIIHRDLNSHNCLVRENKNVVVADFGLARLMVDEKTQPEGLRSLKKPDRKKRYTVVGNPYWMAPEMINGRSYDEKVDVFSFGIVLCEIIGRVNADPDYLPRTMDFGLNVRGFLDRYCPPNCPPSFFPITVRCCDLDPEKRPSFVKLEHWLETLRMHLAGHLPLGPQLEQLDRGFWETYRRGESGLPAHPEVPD
UniProt P53671: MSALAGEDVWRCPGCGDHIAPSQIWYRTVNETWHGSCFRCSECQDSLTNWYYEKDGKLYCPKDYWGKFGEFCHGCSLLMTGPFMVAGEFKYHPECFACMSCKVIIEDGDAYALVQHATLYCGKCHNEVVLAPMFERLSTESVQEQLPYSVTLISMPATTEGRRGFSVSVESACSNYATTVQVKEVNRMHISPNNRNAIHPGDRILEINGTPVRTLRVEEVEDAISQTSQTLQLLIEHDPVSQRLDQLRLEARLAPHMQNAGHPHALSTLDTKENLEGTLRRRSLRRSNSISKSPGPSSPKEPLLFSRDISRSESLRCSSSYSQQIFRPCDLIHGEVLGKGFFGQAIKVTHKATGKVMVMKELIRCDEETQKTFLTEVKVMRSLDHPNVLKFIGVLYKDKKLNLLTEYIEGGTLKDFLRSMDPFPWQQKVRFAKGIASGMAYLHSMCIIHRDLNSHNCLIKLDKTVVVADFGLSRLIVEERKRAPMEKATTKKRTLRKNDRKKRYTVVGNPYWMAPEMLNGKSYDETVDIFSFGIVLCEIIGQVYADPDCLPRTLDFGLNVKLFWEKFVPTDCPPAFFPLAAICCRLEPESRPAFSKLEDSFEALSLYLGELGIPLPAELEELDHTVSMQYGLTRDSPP
UniProt Q8IWU2: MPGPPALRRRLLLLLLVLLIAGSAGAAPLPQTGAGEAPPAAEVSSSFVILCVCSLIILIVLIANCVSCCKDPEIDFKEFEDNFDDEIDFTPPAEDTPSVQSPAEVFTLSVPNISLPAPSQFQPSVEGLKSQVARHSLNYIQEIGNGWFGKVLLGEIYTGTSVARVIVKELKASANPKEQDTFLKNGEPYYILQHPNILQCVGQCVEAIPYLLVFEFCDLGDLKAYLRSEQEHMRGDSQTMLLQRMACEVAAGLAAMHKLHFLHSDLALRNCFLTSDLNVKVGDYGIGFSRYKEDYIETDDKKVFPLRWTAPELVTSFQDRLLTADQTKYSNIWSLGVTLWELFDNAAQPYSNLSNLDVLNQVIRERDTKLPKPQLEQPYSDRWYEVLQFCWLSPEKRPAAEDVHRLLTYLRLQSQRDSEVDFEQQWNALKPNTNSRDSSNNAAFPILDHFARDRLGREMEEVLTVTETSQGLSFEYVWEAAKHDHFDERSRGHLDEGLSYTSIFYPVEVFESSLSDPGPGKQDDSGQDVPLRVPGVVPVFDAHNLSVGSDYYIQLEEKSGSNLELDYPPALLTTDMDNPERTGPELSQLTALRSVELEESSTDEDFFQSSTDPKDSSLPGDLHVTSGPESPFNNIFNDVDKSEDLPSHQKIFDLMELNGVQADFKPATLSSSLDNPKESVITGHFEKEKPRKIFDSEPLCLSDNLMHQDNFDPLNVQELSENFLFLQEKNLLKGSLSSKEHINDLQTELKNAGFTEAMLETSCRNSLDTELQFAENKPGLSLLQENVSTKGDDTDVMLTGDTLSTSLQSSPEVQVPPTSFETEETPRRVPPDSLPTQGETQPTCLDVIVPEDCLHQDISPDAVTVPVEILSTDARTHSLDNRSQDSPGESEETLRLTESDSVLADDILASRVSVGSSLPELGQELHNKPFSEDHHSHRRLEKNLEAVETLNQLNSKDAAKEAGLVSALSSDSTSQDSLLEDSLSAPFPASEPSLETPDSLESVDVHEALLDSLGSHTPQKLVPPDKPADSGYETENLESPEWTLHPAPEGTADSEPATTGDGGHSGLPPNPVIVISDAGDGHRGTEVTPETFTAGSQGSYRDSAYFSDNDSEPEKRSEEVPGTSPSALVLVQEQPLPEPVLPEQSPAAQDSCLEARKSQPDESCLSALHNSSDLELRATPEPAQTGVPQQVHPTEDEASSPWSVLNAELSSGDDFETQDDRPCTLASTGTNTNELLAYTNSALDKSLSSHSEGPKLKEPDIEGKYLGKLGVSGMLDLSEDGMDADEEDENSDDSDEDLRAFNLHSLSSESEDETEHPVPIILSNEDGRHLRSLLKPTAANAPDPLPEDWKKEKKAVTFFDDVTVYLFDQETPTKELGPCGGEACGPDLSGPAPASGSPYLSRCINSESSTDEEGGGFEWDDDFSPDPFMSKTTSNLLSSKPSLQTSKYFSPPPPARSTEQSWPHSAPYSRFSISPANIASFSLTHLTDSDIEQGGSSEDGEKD
UniProt P07948: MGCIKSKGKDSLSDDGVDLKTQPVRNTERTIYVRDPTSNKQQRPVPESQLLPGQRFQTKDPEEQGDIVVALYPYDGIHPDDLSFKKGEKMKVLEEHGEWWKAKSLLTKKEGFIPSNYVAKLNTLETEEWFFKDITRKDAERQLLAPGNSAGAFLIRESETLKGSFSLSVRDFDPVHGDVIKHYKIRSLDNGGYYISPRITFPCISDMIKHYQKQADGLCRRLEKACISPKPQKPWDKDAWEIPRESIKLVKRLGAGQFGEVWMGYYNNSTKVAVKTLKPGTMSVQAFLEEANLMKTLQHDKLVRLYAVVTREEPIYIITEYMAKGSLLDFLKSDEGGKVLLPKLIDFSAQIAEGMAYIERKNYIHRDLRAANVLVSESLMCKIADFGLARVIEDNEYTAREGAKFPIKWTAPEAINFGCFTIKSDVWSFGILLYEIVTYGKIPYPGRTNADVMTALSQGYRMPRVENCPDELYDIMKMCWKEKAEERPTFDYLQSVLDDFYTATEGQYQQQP
UniProt Q12851: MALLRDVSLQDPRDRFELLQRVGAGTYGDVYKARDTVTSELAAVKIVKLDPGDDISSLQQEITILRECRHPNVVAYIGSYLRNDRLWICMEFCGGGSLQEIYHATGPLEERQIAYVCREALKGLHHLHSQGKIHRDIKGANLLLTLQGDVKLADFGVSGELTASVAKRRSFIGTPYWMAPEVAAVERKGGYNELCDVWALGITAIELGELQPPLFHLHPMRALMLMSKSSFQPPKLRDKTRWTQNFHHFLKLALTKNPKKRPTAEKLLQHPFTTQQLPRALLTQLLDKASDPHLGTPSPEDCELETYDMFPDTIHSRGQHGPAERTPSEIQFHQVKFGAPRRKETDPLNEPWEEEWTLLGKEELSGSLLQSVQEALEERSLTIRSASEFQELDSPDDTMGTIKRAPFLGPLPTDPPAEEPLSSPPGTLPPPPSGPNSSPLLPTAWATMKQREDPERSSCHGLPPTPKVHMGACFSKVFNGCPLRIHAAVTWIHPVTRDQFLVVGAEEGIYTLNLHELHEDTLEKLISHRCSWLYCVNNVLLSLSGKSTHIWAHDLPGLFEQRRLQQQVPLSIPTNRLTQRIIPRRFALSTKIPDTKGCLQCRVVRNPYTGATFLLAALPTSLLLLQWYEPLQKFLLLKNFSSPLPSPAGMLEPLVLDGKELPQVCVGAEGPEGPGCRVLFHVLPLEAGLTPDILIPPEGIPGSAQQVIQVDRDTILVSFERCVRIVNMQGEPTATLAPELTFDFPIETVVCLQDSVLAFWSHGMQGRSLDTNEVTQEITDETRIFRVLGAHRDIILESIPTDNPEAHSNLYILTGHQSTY

How the values were obtained:
Assay in all cases: kinase-Nluc reporter destabilization hit call (1 = scored as downregulated) (binary); higher = compound decreases kinase abundance
Settings in all cases: K562, 2-18 h
IRAK3 = IRAK3 (UniProt Q9Y616)
JAK1 = JAK1 (UniProt P23458)
LCK = LCK (UniProt P06239)
LIMK1 = LIMK1 (UniProt P53667)
LIMK2 = LIMK2 (UniProt P53671)
LMTK2 = LMTK2 (UniProt Q8IWU2)
LYN = LYN (UniProt P07948)
MAP2K1 = MAP2K1 (UniProt Q02750)
MAP2K2 = MAP2K2 (UniProt P36507)
MAP4K2 = MAP4K2 (UniProt Q12851)

Measured: kinase-Nluc reporter destabilization hit call

O=C(O)c1ccc2c(c1)nc(Nc1cccc(Cl)c1)c1ccncc12 [Silmitasertib (sodium salt)]
inactive: IRAK3; 10 µM 0 | JAK1; 10 µM 0 | LCK; 10 µM 0 | LIMK1; 10 µM 0 | LIMK2; 10 µM 0 | LMTK2; 10 µM 0 | LYN; 10 µM 0 | MAP2K1; 10 µM 0 | MAP2K2; 10 µM 0 | MAP4K2; 10 µM 0

C/C=C1\C(=O)C[C@H]2[C@@H]3CCC4=CC(=O)CC[C@]4(C)[C@H]3CC[C@]12C [(Z)-Guggulsterone]
inactive: IRAK3; 10 µM 0 | JAK1; 10 µM 0 | LCK; 10 µM 0 | LIMK1; 10 µM 0 | LIMK2; 10 µM 0 | LMTK2; 10 µM 0 | LYN; 10 µM 0 | MAP2K1; 10 µM 0 | MAP2K2; 10 µM 0 | MAP4K2; 10 µM 0

C#Cc1cccc(Nc2ncnc3cc(OCCOC)c(OCCOC)cc23)c1 [Erlotinib (Hydrochloride)]
inactive: IRAK3; 10 µM 0 | JAK1; 10 µM 0 | LIMK1; 10 µM 0 | LIMK2; 10 µM 0 | LMTK2; 10 µM 0 | LYN; 10 µM 0 | MAP2K1; 10 µM 0 | MAP2K2; 10 µM 0 | MAP4K2; 10 µM 0

N#CCC1(n2cc(-c3ncnc4[nH]ccc34)cn2)CN(C2CCN(C(=O)c3ccnc(C(F)(F)F)c3F)CC2)C1 [Itacitinib]
inactive: IRAK3; 10 µM 0 | JAK1; 10 µM 0 | LCK; 10 µM 0 | LIMK1; 10 µM 0 | LIMK2; 10 µM 0 | LMTK2; 10 µM 0 | LYN; 10 µM 0 | MAP2K1; 10 µM 0 | MAP2K2; 10 µM 0 | MAP4K2; 10 µM 0

CN(C)C/C=C/C(=O)Nc1cc2c(Nc3ccc(F)c(Cl)c3)ncnc2cc1O[C@H]1CCOC1 [Afatinib]
inactive: IRAK3; 10 µM 0 | JAK1; 10 µM 0 | LCK; 10 µM 0 | LIMK1; 10 µM 0 | LIMK2; 10 µM 0 | LMTK2; 10 µM 0 | LYN; 10 µM 0 | MAP2K1; 10 µM 0 | MAP2K2; 10 µM 0 | MAP4K2; 10 µM 0

N=C(N)NC(=O)c1nc(Cl)c(N)nc1N [Amiloride (hydrochloride)]
inactive: IRAK3; 10 µM 0 | JAK1; 10 µM 0 | LCK; 10 µM 0 | LIMK1; 10 µM 0 | LIMK2; 10 µM 0 | LMTK2; 10 µM 0 | LYN; 10 µM 0 | MAP2K1; 10 µM 0 | MAP2K2; 10 µM 0 | MAP4K2; 10 µM 0

2 records picked at random from the list so far, as already listed:
CN(C)C/C=C/C(=O)Nc1cc2c(Nc3ccc(F)c(Cl)c3)ncnc2cc1O[C@H]1CCOC1 [Afatinib]
inactive: IRAK3; 10 µM 0 | JAK1; 10 µM 0 | LCK; 10 µM 0 | LIMK1; 10 µM 0 | LIMK2; 10 µM 0 | LMTK2; 10 µM 0 | LYN; 10 µM 0 | MAP2K1; 10 µM 0 | MAP2K2; 10 µM 0 | MAP4K2; 10 µM 0

N=C(N)NC(=O)c1nc(Cl)c(N)nc1N [Amiloride (hydrochloride)]
inactive: IRAK3; 10 µM 0 | JAK1; 10 µM 0 | LCK; 10 µM 0 | LIMK1; 10 µM 0 | LIMK2; 10 µM 0 | LMTK2; 10 µM 0 | LYN; 10 µM 0 | MAP2K1; 10 µM 0 | MAP2K2; 10 µM 0 | MAP4K2; 10 µM 0

The results go on.

C=CC(=O)Nc1cc2c(Nc3ccc(F)c(Cl)c3)ncnc2cc1C#CC(C)(C)N1CCN(C)CC1
inactive: IRAK3; 2.5 µM 0 | JAK1; 2.5 µM 0 | LCK; 2.5 µM 0 | LMTK2; 2.5 µM 0 | LYN; 2.5 µM 0 | MAP2K1; 2.5 µM 0 | MAP2K2; 2.5 µM 0 | MAP4K2; 2.5 µM 0
active: LIMK1; 2.5 µM 1 | LIMK2; 2.5 µM 1

CC(=O)Nc1cccc(-n2c(=O)n(C3CC3)c(=O)c3c(Nc4ccc(I)cc4F)n(C)c(=O)c(C)c32)c1 [Trametinib (DMSO solvate)]
inactive: IRAK3; 10 µM 0 | JAK1; 10 µM 0 | LCK; 10 µM 0 | LIMK1; 10 µM 0 | LIMK2; 10 µM 0 | LMTK2; 10 µM 0 | LYN; 10 µM 0 | MAP2K1; 10 µM 0 | MAP2K2; 10 µM 0 | MAP4K2; 10 µM 0

O=C(Nc1ccncc1)Nc1ccc(-c2nc(N3CCOCC3)nc(N3C4CCC3COC4)n2)cc1
inactive: IRAK3; 10 µM 0 | JAK1; 10 µM 0 | LCK; 10 µM 0 | LIMK1; 10 µM 0 | LIMK2; 10 µM 0 | LMTK2; 10 µM 0 | LYN; 10 µM 0 | MAP2K1; 10 µM 0 | MAP2K2; 10 µM 0 | MAP4K2; 10 µM 0

C=CC(=O)Nc1cc(Nc2ncc(C(=O)OC(C)C)c(-c3cn(C)c4ccccc34)n2)c(OC)cc1N(C)CCN(C)C [Mobocertinib]
inactive: IRAK3; 10 µM 0 | JAK1; 10 µM 0 | LCK; 10 µM 0 | LIMK1; 10 µM 0 | LIMK2; 10 µM 0 | LMTK2; 10 µM 0 | LYN; 10 µM 0 | MAP2K1; 10 µM 0 | MAP2K2; 10 µM 0 | MAP4K2; 10 µM 0

CCCC(=O)Nc1ncnc2c1ncn2[C@@H]1O[C@@H]2COP(=O)(O)O[C@H]2[C@H]1OC(=O)CCC [Bucladesine (calcium)]
inactive: IRAK3; 10 µM 0 | JAK1; 10 µM 0 | LCK; 10 µM 0 | LIMK1; 10 µM 0 | LIMK2; 10 µM 0 | LMTK2; 10 µM 0 | LYN; 10 µM 0 | MAP2K1; 10 µM 0 | MAP2K2; 10 µM 0 | MAP4K2; 10 µM 0

CC(C)(C)n1nc(-c2cccc3ccccc23)c2c(N)ncnc21 [1-Naphthyl PP1]
inactive: IRAK3; 10 µM 0 | JAK1; 10 µM 0 | LIMK1; 10 µM 0 | LIMK2; 10 µM 0 | LMTK2; 10 µM 0 | LYN; 10 µM 0 | MAP2K1; 10 µM 0 | MAP2K2; 10 µM 0 | MAP4K2; 10 µM 0
